What all share (test): electrochemical aptasensor (DPV)
Data set [1] has as its target prostate-specific antigen (PSA) (human (semen)) (UniProt P07288). To be noted: control DNA probe, no significant current reduction; 5'-HS-(CH2)6 thiol; PBS pH 7.2, [Fe(CN)6]3-/4- redox probe, 5 min binding; aptamer heated to 95 C and cooled, immobilized at room temperature with MgCl2 and NaCl; commercial protein; single-stranded DNA.
Data set [2] addresses bovine serum albumin (BSA) (bovine) (UniProt P02769). To be noted: MCH-blocked electrode, no significant current reduction; 5'-HS-(CH2)6 thiol; PBS pH 7.2, [Fe(CN)6]3-/4- redox probe, 5 min binding; aptamer heated to 95 C and cooled, immobilized at room temperature with MgCl2 and NaCl; single-stranded DNA.
In data set [3] the target is human serum albumin (HSA) (human) (UniProt P02768). To be noted: MCH-blocked electrode, no significant current reduction; 5'-HS-(CH2)6 thiol; PBS pH 7.2, [Fe(CN)6]3-/4- redox probe, 5 min binding; aptamer heated to 95 C and cooled, immobilized at room temperature with MgCl2 and NaCl; commercial protein; single-stranded DNA.

The chains behind the UniProt entries cited, without tags or fusion partners. Residues count along the entry.
UniProt P07288, 25-261: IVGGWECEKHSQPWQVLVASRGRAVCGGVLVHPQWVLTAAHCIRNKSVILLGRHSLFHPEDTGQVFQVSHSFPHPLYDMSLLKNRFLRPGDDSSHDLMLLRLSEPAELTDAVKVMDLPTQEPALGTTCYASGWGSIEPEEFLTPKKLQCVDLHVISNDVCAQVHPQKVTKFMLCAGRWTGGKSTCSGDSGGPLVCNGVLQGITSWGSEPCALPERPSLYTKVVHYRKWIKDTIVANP
UniProt P02769, 25-607: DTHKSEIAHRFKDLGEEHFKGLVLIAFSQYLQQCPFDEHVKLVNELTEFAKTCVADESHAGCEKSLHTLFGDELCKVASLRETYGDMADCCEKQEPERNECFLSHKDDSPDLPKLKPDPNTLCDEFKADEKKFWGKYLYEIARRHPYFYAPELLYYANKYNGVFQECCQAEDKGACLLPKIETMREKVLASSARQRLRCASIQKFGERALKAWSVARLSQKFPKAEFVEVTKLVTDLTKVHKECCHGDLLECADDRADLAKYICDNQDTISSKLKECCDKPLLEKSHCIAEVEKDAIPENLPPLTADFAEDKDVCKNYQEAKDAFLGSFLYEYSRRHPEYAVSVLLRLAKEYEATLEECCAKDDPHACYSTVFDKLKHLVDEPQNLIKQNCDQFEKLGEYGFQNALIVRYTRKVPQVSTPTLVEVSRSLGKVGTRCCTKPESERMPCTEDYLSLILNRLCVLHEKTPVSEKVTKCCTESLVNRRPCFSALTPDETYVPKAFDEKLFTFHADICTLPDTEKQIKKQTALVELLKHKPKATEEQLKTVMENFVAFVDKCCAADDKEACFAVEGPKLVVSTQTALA

From paper PMC9776393 come the findings set out here.

Negatives hold for the conditions tested. For part of these data: At least one verdict was read from the data and is not stated in words by the source.

For “AAAAATTAATTTCGAGCGGTAGTTTATCGAAA [control DNA probe]”, the binding result in data set [1] is on record as “no binding”.

Consider “TTTTTAATTAAAGCTCGCCATCAAATAGCTTT [PSA aptamer]”, for which the binding result in data set [2] and in data set [3] was “no binding” in each case.
